Laboratory results published in article PMC4985585.
Results are given in words; binding and its absence hold for the method and conditions named. In cells and extracts the contact can be indirect. Here binding means that the protein was enriched with, or labelled near, the bait; the list need not be complete.

The chains behind the UniProt entries cited, without tags or fusion partners. Residues count along the entry.
UniProt Q9ERK7: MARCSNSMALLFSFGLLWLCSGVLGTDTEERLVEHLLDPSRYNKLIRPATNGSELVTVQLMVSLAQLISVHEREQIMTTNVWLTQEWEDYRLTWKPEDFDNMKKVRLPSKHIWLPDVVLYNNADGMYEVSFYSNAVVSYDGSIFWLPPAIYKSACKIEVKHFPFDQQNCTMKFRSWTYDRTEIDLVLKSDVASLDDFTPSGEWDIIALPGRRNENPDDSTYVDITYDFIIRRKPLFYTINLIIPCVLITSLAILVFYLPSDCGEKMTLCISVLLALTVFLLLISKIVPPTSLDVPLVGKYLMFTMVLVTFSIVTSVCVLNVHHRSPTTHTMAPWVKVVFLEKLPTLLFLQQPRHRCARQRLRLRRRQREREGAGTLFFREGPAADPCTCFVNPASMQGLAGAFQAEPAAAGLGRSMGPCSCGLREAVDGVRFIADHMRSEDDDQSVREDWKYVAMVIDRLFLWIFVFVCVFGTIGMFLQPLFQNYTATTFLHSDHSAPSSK
UniProt P17787, residues 26-502: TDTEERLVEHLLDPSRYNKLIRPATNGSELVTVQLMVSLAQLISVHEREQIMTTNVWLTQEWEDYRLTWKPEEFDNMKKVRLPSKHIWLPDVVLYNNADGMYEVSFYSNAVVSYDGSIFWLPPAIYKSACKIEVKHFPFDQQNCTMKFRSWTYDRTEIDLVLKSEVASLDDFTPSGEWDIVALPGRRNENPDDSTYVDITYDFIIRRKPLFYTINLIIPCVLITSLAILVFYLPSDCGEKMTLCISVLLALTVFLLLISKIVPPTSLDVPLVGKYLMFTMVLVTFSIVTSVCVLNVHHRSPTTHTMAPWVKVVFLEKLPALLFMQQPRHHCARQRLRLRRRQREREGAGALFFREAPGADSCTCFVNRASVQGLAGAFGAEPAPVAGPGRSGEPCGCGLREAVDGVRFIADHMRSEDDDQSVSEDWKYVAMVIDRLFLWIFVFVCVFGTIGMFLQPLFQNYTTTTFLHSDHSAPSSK
UniProt P43681, residues 27-627: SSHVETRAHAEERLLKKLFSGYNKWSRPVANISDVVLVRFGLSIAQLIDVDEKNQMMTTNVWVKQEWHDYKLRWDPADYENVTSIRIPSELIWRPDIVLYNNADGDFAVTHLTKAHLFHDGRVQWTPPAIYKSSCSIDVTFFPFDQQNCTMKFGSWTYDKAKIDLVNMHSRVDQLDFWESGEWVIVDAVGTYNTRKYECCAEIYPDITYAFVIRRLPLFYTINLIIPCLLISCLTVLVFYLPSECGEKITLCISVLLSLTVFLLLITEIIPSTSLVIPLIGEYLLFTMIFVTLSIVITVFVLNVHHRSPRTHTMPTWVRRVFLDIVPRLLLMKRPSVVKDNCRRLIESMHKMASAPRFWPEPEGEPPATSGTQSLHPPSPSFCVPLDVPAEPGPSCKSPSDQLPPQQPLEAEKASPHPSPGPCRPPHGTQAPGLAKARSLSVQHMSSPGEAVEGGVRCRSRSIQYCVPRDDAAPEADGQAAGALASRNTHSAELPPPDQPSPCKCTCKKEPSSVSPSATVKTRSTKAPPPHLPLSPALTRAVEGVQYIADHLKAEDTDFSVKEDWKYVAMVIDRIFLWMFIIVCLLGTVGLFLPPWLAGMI
UniProt P11182, residues 62-482: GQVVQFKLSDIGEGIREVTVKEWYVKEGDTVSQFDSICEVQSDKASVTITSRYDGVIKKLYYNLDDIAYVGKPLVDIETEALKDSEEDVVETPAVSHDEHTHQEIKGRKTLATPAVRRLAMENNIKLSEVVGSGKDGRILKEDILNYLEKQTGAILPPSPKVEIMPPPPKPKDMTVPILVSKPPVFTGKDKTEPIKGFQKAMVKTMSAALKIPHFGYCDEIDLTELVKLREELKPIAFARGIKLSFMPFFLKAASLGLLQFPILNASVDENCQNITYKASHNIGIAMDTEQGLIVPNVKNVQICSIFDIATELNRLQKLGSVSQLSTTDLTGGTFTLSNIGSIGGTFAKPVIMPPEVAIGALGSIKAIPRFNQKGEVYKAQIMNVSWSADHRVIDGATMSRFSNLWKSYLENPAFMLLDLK
UniProt P14136: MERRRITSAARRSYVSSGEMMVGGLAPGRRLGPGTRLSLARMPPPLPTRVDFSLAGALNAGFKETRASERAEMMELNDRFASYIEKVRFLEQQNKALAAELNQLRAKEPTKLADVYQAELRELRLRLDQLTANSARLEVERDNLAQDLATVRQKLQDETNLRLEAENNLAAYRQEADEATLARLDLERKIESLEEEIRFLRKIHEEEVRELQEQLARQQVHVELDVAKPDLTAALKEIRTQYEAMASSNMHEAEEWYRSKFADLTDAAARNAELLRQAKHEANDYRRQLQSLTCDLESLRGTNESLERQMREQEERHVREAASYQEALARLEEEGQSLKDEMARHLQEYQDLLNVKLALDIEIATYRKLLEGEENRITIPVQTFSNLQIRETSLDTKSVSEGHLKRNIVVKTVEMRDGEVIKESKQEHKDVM
UniProt P35580: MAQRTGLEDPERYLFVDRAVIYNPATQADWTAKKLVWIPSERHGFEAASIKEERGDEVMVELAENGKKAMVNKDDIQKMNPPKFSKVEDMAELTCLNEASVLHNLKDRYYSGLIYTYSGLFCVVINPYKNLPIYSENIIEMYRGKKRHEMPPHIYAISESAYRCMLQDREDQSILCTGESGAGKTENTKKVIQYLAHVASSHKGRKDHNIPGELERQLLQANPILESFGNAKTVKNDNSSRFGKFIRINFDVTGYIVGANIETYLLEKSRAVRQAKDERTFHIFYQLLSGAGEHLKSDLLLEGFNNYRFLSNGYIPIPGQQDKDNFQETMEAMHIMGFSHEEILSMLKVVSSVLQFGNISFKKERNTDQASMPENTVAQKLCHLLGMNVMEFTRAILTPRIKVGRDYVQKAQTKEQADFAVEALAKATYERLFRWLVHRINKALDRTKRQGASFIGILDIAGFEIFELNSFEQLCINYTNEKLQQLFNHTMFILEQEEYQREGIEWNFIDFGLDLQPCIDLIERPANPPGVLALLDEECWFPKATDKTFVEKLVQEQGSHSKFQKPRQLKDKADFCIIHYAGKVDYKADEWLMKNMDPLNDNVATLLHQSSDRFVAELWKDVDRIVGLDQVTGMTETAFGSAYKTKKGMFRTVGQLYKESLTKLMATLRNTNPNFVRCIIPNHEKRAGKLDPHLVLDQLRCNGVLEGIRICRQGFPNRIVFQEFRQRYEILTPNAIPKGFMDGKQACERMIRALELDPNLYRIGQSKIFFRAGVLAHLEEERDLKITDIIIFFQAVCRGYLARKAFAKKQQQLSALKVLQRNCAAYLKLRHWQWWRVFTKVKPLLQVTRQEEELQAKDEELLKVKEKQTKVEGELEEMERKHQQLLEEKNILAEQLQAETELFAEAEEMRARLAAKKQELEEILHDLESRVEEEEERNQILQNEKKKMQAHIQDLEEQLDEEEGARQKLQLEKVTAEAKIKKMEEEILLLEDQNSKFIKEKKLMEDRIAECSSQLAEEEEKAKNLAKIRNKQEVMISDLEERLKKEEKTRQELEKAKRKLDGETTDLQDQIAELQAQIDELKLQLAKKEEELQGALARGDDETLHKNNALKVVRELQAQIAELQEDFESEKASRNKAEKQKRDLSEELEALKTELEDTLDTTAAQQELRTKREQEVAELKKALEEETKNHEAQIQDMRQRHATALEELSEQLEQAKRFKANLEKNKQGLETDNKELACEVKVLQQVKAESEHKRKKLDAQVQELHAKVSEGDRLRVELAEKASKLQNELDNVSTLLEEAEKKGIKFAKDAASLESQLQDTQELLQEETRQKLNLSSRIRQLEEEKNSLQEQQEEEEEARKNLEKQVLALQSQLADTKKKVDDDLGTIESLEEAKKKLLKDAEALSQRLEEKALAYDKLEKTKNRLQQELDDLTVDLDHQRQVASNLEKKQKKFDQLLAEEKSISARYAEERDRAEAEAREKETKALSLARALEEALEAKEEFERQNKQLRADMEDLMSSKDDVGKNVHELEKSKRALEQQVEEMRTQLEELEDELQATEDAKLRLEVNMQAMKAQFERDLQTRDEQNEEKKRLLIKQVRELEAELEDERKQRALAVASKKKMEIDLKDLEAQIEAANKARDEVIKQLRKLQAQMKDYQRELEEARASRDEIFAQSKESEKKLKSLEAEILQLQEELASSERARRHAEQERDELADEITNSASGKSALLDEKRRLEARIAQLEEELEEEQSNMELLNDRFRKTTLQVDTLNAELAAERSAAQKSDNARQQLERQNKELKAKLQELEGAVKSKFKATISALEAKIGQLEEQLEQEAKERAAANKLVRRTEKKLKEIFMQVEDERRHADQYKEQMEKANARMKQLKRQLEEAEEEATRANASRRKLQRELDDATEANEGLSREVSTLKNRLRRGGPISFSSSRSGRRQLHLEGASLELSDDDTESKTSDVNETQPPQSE
UniProt P35611: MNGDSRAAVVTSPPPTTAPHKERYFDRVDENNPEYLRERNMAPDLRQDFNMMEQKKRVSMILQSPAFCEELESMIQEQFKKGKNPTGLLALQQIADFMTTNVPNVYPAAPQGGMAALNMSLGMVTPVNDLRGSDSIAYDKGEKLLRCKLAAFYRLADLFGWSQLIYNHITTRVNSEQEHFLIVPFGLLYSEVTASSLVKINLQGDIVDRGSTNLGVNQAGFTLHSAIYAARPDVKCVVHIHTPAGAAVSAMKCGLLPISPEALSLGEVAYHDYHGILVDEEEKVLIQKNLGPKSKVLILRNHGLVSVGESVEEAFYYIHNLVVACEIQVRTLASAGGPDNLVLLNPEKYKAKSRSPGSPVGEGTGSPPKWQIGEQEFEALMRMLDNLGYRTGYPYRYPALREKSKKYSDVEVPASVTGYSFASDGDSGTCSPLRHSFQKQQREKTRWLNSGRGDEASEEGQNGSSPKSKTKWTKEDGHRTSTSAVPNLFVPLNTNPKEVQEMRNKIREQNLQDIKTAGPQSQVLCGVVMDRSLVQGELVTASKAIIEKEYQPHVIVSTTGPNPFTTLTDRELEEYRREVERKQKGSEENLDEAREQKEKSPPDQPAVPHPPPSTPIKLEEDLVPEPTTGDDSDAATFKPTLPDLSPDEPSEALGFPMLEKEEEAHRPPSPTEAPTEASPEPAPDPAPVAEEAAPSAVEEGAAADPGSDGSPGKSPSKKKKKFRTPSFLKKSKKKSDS
UniProt Q13885: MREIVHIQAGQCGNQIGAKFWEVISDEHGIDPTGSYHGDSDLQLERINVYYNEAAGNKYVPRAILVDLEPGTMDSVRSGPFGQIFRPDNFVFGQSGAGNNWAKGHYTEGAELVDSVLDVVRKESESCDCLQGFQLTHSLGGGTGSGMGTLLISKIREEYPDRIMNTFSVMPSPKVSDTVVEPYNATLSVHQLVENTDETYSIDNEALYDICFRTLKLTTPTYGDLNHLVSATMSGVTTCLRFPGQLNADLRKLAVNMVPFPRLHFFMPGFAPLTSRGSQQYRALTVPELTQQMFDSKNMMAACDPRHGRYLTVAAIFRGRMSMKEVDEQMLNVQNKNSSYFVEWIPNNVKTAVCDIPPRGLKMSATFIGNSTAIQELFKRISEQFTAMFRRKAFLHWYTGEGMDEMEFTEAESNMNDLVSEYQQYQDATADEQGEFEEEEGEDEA
UniProt Q16643: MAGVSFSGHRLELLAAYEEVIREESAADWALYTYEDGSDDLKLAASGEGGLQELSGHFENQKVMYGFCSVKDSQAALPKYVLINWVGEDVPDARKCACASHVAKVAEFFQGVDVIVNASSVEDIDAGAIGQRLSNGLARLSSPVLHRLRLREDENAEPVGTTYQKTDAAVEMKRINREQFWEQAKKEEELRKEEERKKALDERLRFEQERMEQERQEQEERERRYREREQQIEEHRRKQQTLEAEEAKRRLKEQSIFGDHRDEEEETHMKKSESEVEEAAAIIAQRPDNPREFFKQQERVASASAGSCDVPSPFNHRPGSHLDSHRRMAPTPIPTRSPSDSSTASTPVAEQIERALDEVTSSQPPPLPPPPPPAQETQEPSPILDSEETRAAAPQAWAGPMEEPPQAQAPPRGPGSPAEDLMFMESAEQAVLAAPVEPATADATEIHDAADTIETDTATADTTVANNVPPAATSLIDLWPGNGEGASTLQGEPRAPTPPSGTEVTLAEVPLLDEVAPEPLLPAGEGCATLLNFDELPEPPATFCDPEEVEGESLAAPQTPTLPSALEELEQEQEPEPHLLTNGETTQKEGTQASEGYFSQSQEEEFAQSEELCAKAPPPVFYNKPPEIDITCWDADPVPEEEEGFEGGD

B1: Pyruvate dehydrogenase E1 component subunit β, mito (mouse) (protein, UniProt Q9D051 31-359)
chain: VQLTVREAINQGMDEELERDEKVFLLGEEVAQYDGAYKVSRGLWKKYGDKRIIDTPISEMGFAGIAVGAAMAGLRPICEFMTFNFSMQAIDQVINSAAKTYYMSAGLQPVPIVFRGPNGASAGVAAQHSQCFAAWYGHCPGLKVVSPWNSEDAKGLIKSAIRDNNPVVMLENELMYGVAFELPAEAQSKDFLIPIGKAKIERQGTHITVVAHSRPVGHCLEAAAVLSKEGIECEVINLRTIRPMDIEAIEASVMKTNHLVTVEGGWPQFGVGAEICARIMEGPAFNFLDAPAVRVTGADVPMPYAKVLEDNSVPQVKDIIFAVKKTLNI
B2: Neurofilament heavy polypeptide (mouse) (protein, UniProt P19246 1-1090)
chain: MMSFGSADALLGAPFAPLHGGGSLHYSLSRKAGPGGTRSAAGSSSGFHSWARTSVSSVSASPSRFRGAASSTDSLDTLSNGPEGCVVAAVAARSEKEQLQALNDRFAGYIDKVRQLEAHNRSLEGEAAALRQQQAGRAAMGELYEREVREMRGAVLRLGAARGQLRLEQEHLLEDIAHVRQRLDEEARQREEAEAAARALARFAQEAEAARVELQKKAQALQEECGYLRRHHQEEVGELLGQIQGCGAAQAQAQAEARDALKCDVTSALREIRAQLEGHAVQSTLQSEEWFRVRLDRLSEAAKVNTDAMRSAQEEITEYRRQLQARTTELEALKSTKESLERQRSELEDRHQADIASYQDAIQQLDSELRNTKWEMAAQLREYQDLLNVKMALDIEIAAYRKLLEGEECRIGFGPSPFSLTEGLPKIPSISTHIKVKSEEMIKVVEKSEKETVIVEGQTEEIRVTEGVTEEEDKEAQGQEGEEAEEGEEKEEEEGAAATSPPAEEAASPEKETKSRVKEEAKSPGEAKSPGEAKSPAEAKSPGEAKSPGEAKSPGEAKSPAEPKSPAEPKSPAEAKSPAEPKSPATVKSPGEAKSPSEAKSPAEAKSPAEAKSPAEAKSPAEAKSPAEAKSPAEAKSPATVKSPGEAKSPSEAKSPAEAKSPAEAKSPAEAKSPAEVKSPGEAKSPAEPKSPAEAKSPAEVKSPAEAKSPAEVKSPGEAKSPAAVKSPAEAKSPAAVKSPGEAKSPGEAKSPAEAKSPAEAKSPIEVKSPEKAKTPVKEGAKSPAEAKSPEKAKSPVKEDIKPPAEAKSPEKAKSPVKEGAKPPEKAKPLDVKSPEAQTPVQEEAKHPTDIRPPEQVKSPAKEKAKSPEKEEAKTSEKVAPKKEEVKSPVKEEVKAKEPPKKVEEEKTLPTPKTEAKESKKDEAPKEAPKPKVEEKKETPTEKPKDSTAEAKKEEAGEKKKAVASEEETPAKLGVKEEAKPKEKTETTKTEAEDTKAKEPSKPTETEKPKKEEMPAAPEKKDTKEEKTTESRKPEEKPKMEAKVKEDDKSLSKEPSKPKTEKAEKSSSTDQKESQPPEKTTEDKATKGEK
B3: Ras-related protein Rab-3A (mouse) (protein, UniProt P63011 1-220)
chain: MASATDSRYGQKESSDQNFDYMFKILIIGNSSVGKTSFLFRYADDSFTPAFVSTVGIDFKVKTIYRNDKRIKLQIWDTAGQERYRTITTAYYRGAMGFILMYDITNEESFNAVQDWSTQIKTYSWDNAQVLLVGNKCDMEDERVVSSERGRQLADHLGFEFFEASAKDNINVKQTFERLVDVICEKMSESLDTADPAVTGAKQGPQLTDQQAPPHQDCAC
B4: Neurofilament light polypeptide (mouse) (protein, UniProt P08551 1-543)
chain: MSSFGYDPYFSTSYKRRYVETPRVHISSVRSGYSTARSAYSSYSAPVSSSLSVRRSYSSSSGSLMPSLENLDLSQVAAISNDLKSIRTQEKAQLQDLNDRFASFIERVHELEQQNKVLEAELLVLRQKHSEPSRFRALYEQEIRDLRLAAEDATNEKQALQGEREGLEETLRNLQARYEEEVLSREDAEGRLMEARKGADEAALARAELEKRIDSLMDEIAFLKKVHEEEIAELQAQIQYAQISVEMDVSSKPDLSAALKDIRAQYEKLAAKNMQNAEEWFKSRFTVLTESAAKNTDAVRAAKDEVSESRRLLKAKTLEIEACRGMNEALEKQLQELEDKQNADISAMQDTINKLENELRSTKSEMARYLKEYQDLLNVKMALDIEIAAYRKLLEGEETRLSFTSVGSITSGYSQSSQVFGRSAYSGLQSSSYLMSARSFPAYYTSHVQEEQTEVEETIEATKAEEAKDEPPSEGEAEEEEKEKEEGEEEEGAEEEEAAKDESEDTKEEEEGGEGEEEDTKESEEEEKKEESAGEEQVAKKKD
B5: Neurofilament medium polypeptide (mouse) (protein, UniProt P08553 1-848)
chain: MSYTLDSLGNPSAYRRVTETRSSFSRVSGSPSSGFRSQSWSRGSPSTVSSSYKRSALAPRLAYSSAMLSSAESSLDFSQSSSLLNGGSGGDYKLSRSNEKEQLQGLNDRFAGYIEKVHYLEQQNKEIEAEIQALRQKQASHAQLGDAYDQEIRELRATLEMVNHEKAQVQLDSDHLEEDIHRLKERFEEEARLRDDTEAAIRALRKDIEESSMVKVELDKKVQSLQDEVAFLRSNHEEEVADLLAQIQASHITVERKDYLKTDISTALKEIRSQLECHSDQNMHQAEEWFKCRYAKLTEAAEQNKEAIRSAKEEIAEYRRQLQSKSIELESVRGTKESLERQLSDIEERHNHDLSSYQDTIQQLENELRGTKWEMARHLREYQDLLNVKMALDIEIAAYRKLLEGEETRFSTFSGSITGPLYTHRQPSVTISSKIQKTKVEAPKLKVQHKFVEEIIEETKVEDEKSEMEETLTAIAEELAASAKEEKEEAEEKEEEPEAEKSPVKSPEAKEEEEEGEKEEEEEGQEEEEEEDEGVKSDQAEEGGSEKEGSSEKDEGEQEEEEGETEAEGEGEEAEAKEEKKIEGKVEEVAVKEEIKVEKPEKAKSPMPKSPVEEVKPKPEAKAGKGEQKEEEKVEEEKKEVTKESPKEEKVEKKEEKPKDVADKKKAESPVKEKAVEEVITISKSVKVSLEKDTKEEKPQPQEKVKEKAEEEGGSEEEGSDRSPQESKKEDIAINGEVEGKEEEEQETQEKGSGREEEKGVVTNGLDVSPAEEKKGEDSSDDKVVVTKKVEKITSEGGDGATKYITKSVTVTQKVEEHEETFEEKLVSTKKVEKVTSHAIVKEVTQGD
B6: Thy-1 membrane glycoprotein (mouse) (protein, UniProt P01831 20-131)
chain: QKVTSLTACLVNQNLRLDCRHENNTKDNSIQHEFSLTREKRKHVLSGTLGIPEHTYRSRVTLSNQPYIKVLTLANFTTKDEGDYFCELQVSGANPMSSNKSISVYRDKLVKC
B7: Pyruvate dehydrogenase E1 component subunit α, somatic form, mito (mouse) (protein, UniProt P35486 30-390)
chain: FANDATFEIKKCDLHRLEEGPPVTTVLTREDGLKYYRMMQTVRRMELKADQLYKQKIIRGFCHLCDGQEACCVGLEAGINPTDHLITAYRAHGFTFTRGLPVRAILAELTGRRGGCAKGKGGSMHMYAKNFYGGNGIVGAQVPLGAGIALACKYNGKDEVCLTLYGDGAANQGQIFEAYNMAALWKLPCIFICENNRYGMGTSVERAAASTDYYKRGDFIPGLRVDGMDILCVREATKFAAAYCRSGKGPILMELQTYRYHGHSMSDPGVSYRTREEIQEVRSKSDPIMLLKDRMVNSNLASVEELKEIDVEVRKEIEDAAQFATADPEPPLEELGYHIYSSDPPFEVRGANQWIKFKSVS
B8: Sideroflexin-3 (mouse) (protein, UniProt Q91V61 1-321)
chain: MGDLPLNINIQEPRWDQSTFLGRARHFFTVTDPRNLLLSGEQLEASRNIVQNYRAGVATPGLTEDQLWRAKYVYDSAFHPDTGEKVVLIGRMSAQVPMNMTITGCMLTFYRKTPTVVFWQWVNQSFNAIVNYSNRSGDAPITVQQLGTAYVSATTGAVATALGLKSLTKHLPPLVGRFVPFAAVAAANCINIPLMRQRELQVGIPVTDEAGQRLGHSVTAAKQGIFQVVISRIGMAIPAMAIPPVIMNTLEKKDFLKRRPWLGAPLQVGLVGFCLVFATPLCCALFPQRSSIHVTRLEPELRAQIQAQNPSIDVVYYNKGL
B9: OCIA domain-containing protein 2 (mouse) (protein, UniProt Q9D8W7 1-154)
chain: MASVSTHGNQEKSPHLPPLSKQSLLFCPKSKLHIHRGEIAKIIRECQEESFWKRALPFSLISMLVTQGLVHQGYLAANPRFGSLPKVALAGLLGFGLGKASYIRVCQSKFHSFEDQLRGAGFGPEHNRHCLLTCEDCKTRRGLSEKAGSQPSAS
B10: Dihydrolipoyl-lysine residue succinyltransferas 2-oxoglutarate dehydrogenase complex, mito (mouse) (protein, UniProt Q9D2G2 69-454)
chain: NDVITVQTPAFAESVTEGDVRWEKAVGDAVAEDEVVCEIETDKTSVQVPSPANGIIEALLVPDGGKVEGGTPLFTLRKTGAAPAKAKPAETPAPAHKAEPAAPAAPPPPAAPVLTQMPPVPSPSQPPSSKPVSAIKPTAAPPLAEAGAAKGLRSEHREKMNRMRQRIAQRLKEAQNTCAMLTTFNEVDMSNIQEMRARHKDAFLKKHNLKLGFMSAFVKASAFALQEQPVVNAVIDDATKEVVYRDYIDISVAVATPRGLVVPVIRNVETMNYADIERTINELGEKARKNELAIEDMDGGTFTISNGGVFGSLFGTPIINPPQSAILGMHAIFDRPVAVGGKVEVRPMMYVALTYDHRLIDGREAVTFLRKIKAAVEDPRVLLLDL
B11: Prohibitin (mouse) (protein, UniProt P67778 1-272)
chain: MAAKVFESIGKFGLALAVAGGVVNSALYNVDAGHRAVIFDRFRGVQDIVVGEGTHFLIPWVQKPIIFDCRSRPRNVPVITGSKDLQNVNITLRILFRPVASQLPRIYTSIGEDYDERVLPSITTEILKSVVARFDAGELITQRELVSRQVSDDLTERAATFGLILDDVSLTHLTFGKEFTEAVEAKQVAQQEAERARFVVEKAEQQKKAAIISAEGDSKAAELIANSLATAGDGLIELRKLEAAEDIAYQLSRSRNITYLPAGQSVLLQLPQ

Target: Neuronal acetylcholine receptor subunit β2 (mouse) (mouse (endogenous in cortex)) (UniProt Q9ERK7)
Experiment: affinity purification with mass spectrometry; β2*-nAChRs captured on mAb295-coupled M270 Dynabeads from a Triton X-100 extract of pooled mouse cortex membranes after DSP cross-linking; eight-plex iTRAQ LC-MS/MS; β2+/+, β2+/-, α4+/-β2+/- and β2-/- mice given saline or nicotine (4 mg/kg/h, 10 d); proteins found in both biological replicates

binding, binds:
B1
B2
B3
B4
B5
B6
B7
B8
B9
B10
B11

Target: Neuronal acetylcholine receptor subunit β2 (human (endogenous in temporal cortex)) (UniProt P17787)
Experiment: affinity purification with mass spectrometry; β2*-nAChRs captured overnight at 4°C on mAb295-coupled M270 Dynabeads from a 0.6% Triton X-100 extract of postmortem human temporal cortex membranes; homogenate cross-linked with 1 mM DSP before extraction; eluted with 0.1 M NH4OH, 1 mM EDTA, pH 10; label-free LC-MS/MS (Orbitrap Elite); 18 samples from tobacco users and non-users, with or without a mood disorder

binding, binds:
ATP synthase subunit β, mito (from UniProt P06576 48-529)
Neuronal acetylcholine receptor subunit α4 (from UniProt P43681 27-627)
Lipoamide acyltransferase of branched-chain α-keto acid dehydrogenase mito (from UniProt P11182 62-482)
Glial fibrillary acidic protein (from UniProt P14136 1-432)
Myosin-10 (from UniProt P35580 1-1976)
α-Adducin (from UniProt P35611 1-737)
Tubulin β2A chain (from UniProt Q13885 1-445)
Ankyrin-2 (from UniProt Q01484 1-3957)
Drebrin (from UniProt Q16643 1-649)
